Data published in patent publication US20240123079A1 (Seagen Inc., priority 2021, published 2024).
Values after ≈ are worked out from the molar mass of the structure shown. At least one compound was matched to its structure with a doubt left.

Test system: THP1-Dual™ reporter cells
Test: THP1-Dual cell reporter assay (IRF-Lucia luciferase reporter)
Format: cell-based, human
Conditions: 48 h
Method: THP1-Dual™ Cell Reporter Assay
Potency of compounds and ADCs was evaluated using the THP1-Dual™ cells (InvivoGen PN: thpd-nfis [also referred to as THP1 dual reporter cells]), which contain an IRF-Lucia luciferase reporter. Cells were cultured in RPMI-1640 (Gibco) with 10% heat-inactivated fetal bovine serum, Pen-Strep (100 U/mL-100 μg/mL, Gibco), HEPES (10 mM, Gibco)), sodium pyruvate (1 mM, Gibco), MEM non-essential amino acids (1×, Gibco), GlutaMAX (1×, Gibco), and beta-mercaptoethanol (55 μM, Gibco). […] To measure Lucia reporter signal, 10 μL of the supernatant was combined with 40 μL of QUANTI-Luc™ Luminescence assay reagent (Invivogen PN: rep-qlc1) in a 96-well clear flat bottom tissue culture-treated black polystyrene plate (Corning Costar #3603) and read on a Perkin Elmer Envision plate reader.
STING agonist compounds were assessed for their ability to activate THP1-Dual™ reporter cells, a human monocytic cell line in which type I interferon (IRF) signaling can be monitored via a secreted luciferase reporter protein (Lucia). THP1-Dual™ cells were treated with increasing concentrations of the agonists for 24h, then supernatants were harvested and the Lucia reporter signal was quantified using QUANTI-Luc™ Luminescence assay reagent.

SMILES: CCn1nc(C)cc1C(=O)Nc1nc2cc(C(N)=O)cc(OC)c2n1C/C=C/Cn1c(NC(=O)c2cc(C)nn2CC)nc2cc(C(N)=O)cc(OCCCN(C)C(=O)CCN3C(=O)C=CC3=O)c21 [Compound 12, (E)-1-(4-(5-carbamoyl-2-(1-ethyl-3-methyl-1H-pyrazole-5-carboxamido)-7-methoxy-1H-benzo[d]imidazol-1-yl)but-2-en-1-yl)-7-(3-(3-(2,5-dioxo-2,5-dihydro-1H-pyrrol-1-yl)-N-methylpropanamido)propoxy)-2-(1-ethyl-3-methyl-1H-pyrazole-5-carboxamido)-1H-benzo[d]imidazole-5-carboxamide]
- EC50 (ADCs: drug linker conjugated to a targeted mAb): 4.2 ng/mL (≈ 4.44 nM)
- potency of ADC relative to other ADC (conjugated to a targeted mAb): more potent
